Laboratory results published in PubChem BioAssay AID720504 (National Center for Advancing Translational Sciences (NCATS), 2013).
Out of some 360,000 compounds screened, about 10,000 (2.8%) were called active. Inconclusive means that the source gave no clear call. Such entries were picked first, then a sample of the others. Calls come from the whole dose curve; as a rule, active = well fitted inhibition curve with a large enough effect; inconclusive = small, poorly fitted or top-dose-only effect; inactive = flat fitted curve, though single readings scatter. A potency beside an inconclusive call is a rough fit, not a confirmed value.

Chains of the proteins cited; added tags and fusions are not shown.
UniProt P53350, whole entry, looked up: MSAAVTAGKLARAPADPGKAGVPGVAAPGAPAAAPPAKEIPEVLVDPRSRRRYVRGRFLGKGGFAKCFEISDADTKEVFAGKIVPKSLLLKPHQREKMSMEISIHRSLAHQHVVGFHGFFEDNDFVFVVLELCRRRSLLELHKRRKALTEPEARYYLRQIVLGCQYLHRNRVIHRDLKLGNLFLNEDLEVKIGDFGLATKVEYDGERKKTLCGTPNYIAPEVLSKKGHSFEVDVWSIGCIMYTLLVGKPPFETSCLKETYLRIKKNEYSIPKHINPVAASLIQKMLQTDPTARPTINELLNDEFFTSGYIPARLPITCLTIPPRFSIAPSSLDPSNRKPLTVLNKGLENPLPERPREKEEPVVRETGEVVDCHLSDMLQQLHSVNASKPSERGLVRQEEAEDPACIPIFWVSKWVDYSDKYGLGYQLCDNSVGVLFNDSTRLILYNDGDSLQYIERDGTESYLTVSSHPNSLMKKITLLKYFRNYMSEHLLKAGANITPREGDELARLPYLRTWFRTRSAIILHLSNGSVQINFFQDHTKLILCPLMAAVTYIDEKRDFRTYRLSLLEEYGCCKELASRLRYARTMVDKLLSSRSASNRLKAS

molecular target: Serine/threonine-protein kinase PLK1 (Homo sapiens) (UniProt P53350); test: qHTS for Inhibitors of PLK1-PDB (polo-like kinase 1 - polo-box domain): Primary Screen; details: Plk1 PBD binding of FITC phosphopeptide, fluorescence polarization; note: nearly all actives have a fitted effect of over 65% in size; for max response, negative = inhibition: series mostly up to about 57 µM
% is set by controls: 0 for no effect and ±100 for the full control effect; potency is the fitted concentration of half-maximal effect.

Row | Structure (SMILES) | Potency | max response, negative = inhibition
1 | CC(C)(C)OC(=O)N1CCC[C@H]1c1nnc(SCc2ccccc2)o1 | inconclusive: 29.9 µM [inhibitor, partial curve] | –
2 | C[C@H](CO)N1C[C@H](C)[C@@H](CN(C)S(=O)(=O)c2cn(C)cn2)Oc2c(NC(=O)Nc3ccc(C(F)(F)F)cc3)cccc2C1=O | – | inactive: -12.2%
3 | CN(CC(=O)NCC(=O)Nc1ccc(F)cc1)C1CCS(=O)(=O)C1 (stereo unspecified) | – | inactive: 1.26%
4 | CCOC(=O)c1cc(-c2ccc(/C=C3/C(=O)NC(=O)C(C#N)=C3C)o2)ccc1Cl | active: 3.36 µM | –
5 | COc1ccc(N=Nc2cc(C)ccc2O)cc1 | – | inactive: -15.4%
6 | Cc1nc(C)c(C(=O)NCc2ccccc2Cl)o1 | active: 21.2 µM | –
7 | C[C@H](NC(=O)N1CCn2c1nc1ccccc12)C(=O)N1CCCCC1 | active: 8.44 µM | –
8 | COc1cccc(C2CC(=O)Nc3cc4c(cc32)OCCO4)c1OC(C)C (stereo unspecified) | inconclusive: 37.7 µM [inhibitor, single point] | –
9 | COC(=O)c1ccccc1CSc1nsc(C)c1C#N | active: 13.4 µM | –
10 | Cc1cccc(CCNC(=O)C2CCCN(c3cnccn3)C2)c1 (stereo unspecified) | – | inconclusive: 0.908% [inhibitor]
11 | CCOC(=O)c1sc(=S)n(-c2ccccc2OC)c1N | active: 21.2 µM | –
12 | Cc1c(C(=O)N2CCN(c3ccc(C(F)(F)F)cn3)CC2)oc2ccccc12 | active: 29.9 µM | –
13 | Cc1cc(NC(=O)c2ccccc2)n(-c2ccccc2)n1 | inconclusive: 29.9 µM [inhibitor, single point] | –
14 | C[C@H](O)[C@@H]1CN2CCc3c([nH]c4ccc(-c5ccc6c(c5)OCO6)cc34)[C@@H]2C[C@@H]1N(C)C(=O)NC1CCCCC1 | – | inactive: -19.6%
15 | CC(N=C1NS(=O)(=O)c2ccccc21)c1ccccc1 (stereo unspecified) | active: 23.8 µM | –
16 | CC1=NN(C(N)=S)C(=O)C1N=Nc1ccc(F)cc1 (stereo unspecified) | inconclusive: 23.8 µM [inhibitor, single point] | –
17 | C=C(C)C(=O)OCCCCCCOc1ccc(C(=O)O)cc1 | inconclusive: 18.9 µM [inhibitor, partial curve] | –
18 | CSc1nnc(-c2ccccc2SC)o1 | active: 29.9 µM | –
19 | CC1(OC(=O)C2CCCC2)C(=O)C=C2C=C(c3ccsc3)OC=C2C1=O (stereo unspecified) | inconclusive: 23.8 µM [inhibitor, partial curve] | –
20 | C=CCN(CC=C)C(=S)NC(=O)Cc1cccc2ccccc12 | inconclusive: 33.6 µM [inhibitor, partial curve] | –
21 | N#Cc1cccc(S(=O)(=O)NCC(=O)NCc2ccc3c(c2)OCO3)c1 | inconclusive: 21.2 µM [inhibitor, single point] | –

Sorted by count of non-hydrogen atoms (rising): part of the list above
Row | Structure (SMILES) | Potency | max response, negative = inhibition
5 | COc1ccc(N=Nc2cc(C)ccc2O)cc1 | – | inactive: -15.4%
13 | Cc1cc(NC(=O)c2ccccc2)n(-c2ccccc2)n1 | inconclusive: 29.9 µM [inhibitor, single point] | –
17 | C=C(C)C(=O)OCCCCCCOc1ccc(C(=O)O)cc1 | inconclusive: 18.9 µM [inhibitor, partial curve] | –
1 | CC(C)(C)OC(=O)N1CCC[C@H]1c1nnc(SCc2ccccc2)o1 | inconclusive: 29.9 µM [inhibitor, partial curve] | –
21 | N#Cc1cccc(S(=O)(=O)NCC(=O)NCc2ccc3c(c2)OCO3)c1 | inconclusive: 21.2 µM [inhibitor, single point] | –
14 | C[C@H](O)[C@@H]1CN2CCc3c([nH]c4ccc(-c5ccc6c(c5)OCO6)cc34)[C@@H]2C[C@@H]1N(C)C(=O)NC1CCCCC1 | – | inactive: -19.6%
